Measurements published in article PMC11612967.
These are yes or no findings as the source states them, for the method shown. For part of these data: In cells and extracts the contact can be indirect. Some results given as binding are weak or reduced against the parent protein; the word gives no strength.

Tests used:
[1] = molecular target: T1, S. cerevisiae Smc6 (S. cerevisiae) (UniProt Q12749); assay: SEC; large scale, 1 liter E. coli culture; Smc6 with C-terminal Twin-Strep tag; StrepTrap, HiTrap Heparin, then Superose 6 Increase in 10 mM Tris-HCl pH 7.5, 300 mM NaCl; peak fractions by SDS-PAGE and LC-MS/MS
T1 sequence: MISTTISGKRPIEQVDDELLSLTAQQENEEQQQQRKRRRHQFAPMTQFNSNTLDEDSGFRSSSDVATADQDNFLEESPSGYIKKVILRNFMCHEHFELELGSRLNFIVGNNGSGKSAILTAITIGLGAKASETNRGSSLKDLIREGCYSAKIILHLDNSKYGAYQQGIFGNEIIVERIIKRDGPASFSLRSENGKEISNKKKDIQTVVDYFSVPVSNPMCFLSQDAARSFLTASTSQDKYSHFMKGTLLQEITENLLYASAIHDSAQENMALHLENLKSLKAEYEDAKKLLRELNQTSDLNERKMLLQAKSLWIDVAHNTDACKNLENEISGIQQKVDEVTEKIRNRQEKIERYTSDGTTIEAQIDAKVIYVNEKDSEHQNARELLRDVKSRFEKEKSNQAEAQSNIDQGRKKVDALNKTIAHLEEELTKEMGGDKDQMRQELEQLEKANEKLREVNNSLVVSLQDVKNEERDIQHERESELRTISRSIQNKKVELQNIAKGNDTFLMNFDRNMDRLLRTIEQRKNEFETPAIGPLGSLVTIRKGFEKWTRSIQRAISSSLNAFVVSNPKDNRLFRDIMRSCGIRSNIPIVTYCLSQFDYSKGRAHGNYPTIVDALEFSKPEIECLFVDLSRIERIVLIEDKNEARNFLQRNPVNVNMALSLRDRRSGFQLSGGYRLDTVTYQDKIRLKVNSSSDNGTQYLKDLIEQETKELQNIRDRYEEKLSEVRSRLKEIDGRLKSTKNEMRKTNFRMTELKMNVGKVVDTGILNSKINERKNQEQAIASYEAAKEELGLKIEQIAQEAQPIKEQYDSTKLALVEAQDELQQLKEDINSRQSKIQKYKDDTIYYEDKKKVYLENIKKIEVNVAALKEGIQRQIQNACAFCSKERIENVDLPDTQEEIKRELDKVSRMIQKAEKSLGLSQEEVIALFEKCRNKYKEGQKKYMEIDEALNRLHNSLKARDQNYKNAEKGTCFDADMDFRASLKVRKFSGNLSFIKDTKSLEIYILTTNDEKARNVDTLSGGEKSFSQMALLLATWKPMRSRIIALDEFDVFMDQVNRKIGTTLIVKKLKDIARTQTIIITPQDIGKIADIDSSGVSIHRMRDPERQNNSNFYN

[2] = molecular target: T1, S. cerevisiae Smc6 (S. cerevisiae); assay: pull-down; S. cerevisiae Smc5/6 subunits co-expressed in E. coli Rosetta (DE3), one subunit with a Twin-Strep tag (N- or C-terminal); clarified lysate on Strep-Tactin Sepharose, 1 h at 4°C, 50 mM Tris-HCl pH 7.5, 300 mM NaCl, 5% glycerol; eluted with 2.5 mM desthiobiotin; Coomassie-stained SDS-PAGE
[3] = molecular target: T2, S. cerevisiae Nse2 (S. cerevisiae) (UniProt P38632); assay: as above
T2 sequence: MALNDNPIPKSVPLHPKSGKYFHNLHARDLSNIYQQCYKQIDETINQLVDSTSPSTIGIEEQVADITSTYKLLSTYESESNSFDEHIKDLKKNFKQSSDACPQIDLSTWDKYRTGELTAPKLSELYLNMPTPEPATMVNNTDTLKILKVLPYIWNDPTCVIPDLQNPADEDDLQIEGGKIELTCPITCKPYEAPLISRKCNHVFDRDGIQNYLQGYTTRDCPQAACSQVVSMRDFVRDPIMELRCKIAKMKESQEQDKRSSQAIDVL

[4] = molecular target: T3, S. cerevisiae Nse3 (S. cerevisiae) (UniProt Q05541); assay: as above
T3 sequence: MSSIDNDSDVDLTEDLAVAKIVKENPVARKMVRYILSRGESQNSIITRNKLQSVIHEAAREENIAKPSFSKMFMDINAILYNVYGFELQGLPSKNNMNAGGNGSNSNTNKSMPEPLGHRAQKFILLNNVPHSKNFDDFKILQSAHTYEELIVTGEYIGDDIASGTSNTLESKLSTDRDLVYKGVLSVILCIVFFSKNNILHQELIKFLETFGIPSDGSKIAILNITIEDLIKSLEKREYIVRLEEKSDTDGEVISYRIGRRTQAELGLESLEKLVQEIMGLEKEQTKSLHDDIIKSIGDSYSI

[5] = molecular target: T4, S. cerevisiae Nse4 (S. cerevisiae) (UniProt P43124); assay: as above
T4 sequence: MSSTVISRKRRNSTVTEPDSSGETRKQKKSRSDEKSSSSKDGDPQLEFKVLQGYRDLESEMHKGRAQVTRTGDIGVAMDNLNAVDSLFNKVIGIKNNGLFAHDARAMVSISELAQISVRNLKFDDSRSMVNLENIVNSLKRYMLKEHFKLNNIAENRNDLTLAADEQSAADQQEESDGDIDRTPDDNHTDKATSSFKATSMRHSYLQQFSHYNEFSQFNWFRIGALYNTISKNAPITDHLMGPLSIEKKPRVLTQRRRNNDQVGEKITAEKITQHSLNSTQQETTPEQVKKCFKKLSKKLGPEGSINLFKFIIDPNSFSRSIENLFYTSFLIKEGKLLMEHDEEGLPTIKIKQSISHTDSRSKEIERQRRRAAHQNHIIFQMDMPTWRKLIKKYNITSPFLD

[6] = molecular target: T5, S. cerevisiae Nse1 (S. cerevisiae) (UniProt Q07913); assay: as above
T5 sequence: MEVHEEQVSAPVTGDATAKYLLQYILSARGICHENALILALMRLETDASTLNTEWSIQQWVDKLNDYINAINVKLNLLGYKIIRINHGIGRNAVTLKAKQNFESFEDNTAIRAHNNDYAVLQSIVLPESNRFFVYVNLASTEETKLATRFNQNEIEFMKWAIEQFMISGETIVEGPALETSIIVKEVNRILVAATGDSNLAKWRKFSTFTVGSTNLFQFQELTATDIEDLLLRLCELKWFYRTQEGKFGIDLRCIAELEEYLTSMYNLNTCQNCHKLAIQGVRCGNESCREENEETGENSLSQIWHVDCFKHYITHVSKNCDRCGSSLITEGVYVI

- binding [1]: binds
- binding [2]: binds
- binding [3]: binds
- binding [4]: binds
- binding [5]: binds
- binding [6]: binds
B1: S. cerevisiae Smc5 (protein, UniProt Q08204 1-1093)
chain: MTSLIDLGRYVERTHHGEDTEPRSKRVKIAKPDLSSFQPGSIIKIRLQDFVTYTLTEFNLSPSLNMIIGPNGSGKSTFVCAVCLGLAGKPEYIGRSKKVEDFIKNGQDVSKIEITLKNSPNVTDIEYIDARDETIKITRIITRSKRRSDYLINDYQVSESVVKTLVAQLNIQLDNLCQFLSQERVEEFARLKSVKLLVETIRSIDASLLDVLDELRELQGNEQSLQKDLDFKKAKIVHLRQESDKLRKSVESLRDFQNKKGEIELHSQLLPYVKVKDHKEKLNIYKEEYERAKANLRAILKDKKPFANTKKTLENQVEELTEKCSLKTDEFLKAKEKINEIFEKLNTIRDEVIKKKNQNEYYRGRTKKLQATIISTKEDFLRSQEILAQTHLPEKSVFEDIDIKRKEIINKEGEIRDLISEIDAKANAINHEMRSIQRQAESKTKSLTTTDKIGILNQDQDLKEVRDAVLMVREHPEMKDKILEPPIMTVSAINAQFAAYLAQCVDYNTSKALTVVDSDSYKLFANPILDKFKVNLRELSSADTTPPVPAETVRDLGFEGYLSDFITGDKRVMKMLCQTSKIHTIPVSRRELTPAQIKKLITPRPNGKILFKRIIHGNRLVDIKQSAYGSKQVFPTDVSIKQTNFYQGSIMSNEQKIRIENEIINLKNEYNDRKSTLDALSNQKSGYRHELSELASKNDDINREAHQLNEIRKKYTMRKSTIETLREKLDQLKREARKDVSQKIKDIDDQIQQLLLKQRHLLSKMASSMKSLKNCQKELISTQILQFEAQNMDVSMNDVIGFFNEREADLKSQYEDKKKFVKEMRDTPEFQSWMREIRSYDQDTKEKLNKVAEKYEEEGNFNLSFVQDVLDKLESEIAMVNHDESAVTILDQVTAELRELEHTVPQQSKDLETIKAKLKEDHAVLEPKLDDIVSKISARFARLFNNVGSAGAVRLEKPKDYAEWKIEIMVKFRDNAPLKKLDSHTQSGGERAVSTVLYMIALQEFTSAPFRVVDEINQGMDSRNERIVHKAMVENACAENTSQYFLITPKLLTGLHYHEKMRIHCVMAGSWIPNPSEDPKMIHFGETSNYSFD
